Results from patent publication US7893056B2, “Peptide deformylase inhibitors” (GlaxoSmithKline LLC, priority 2007, dated 2011).
Some results were stated once for a whole list of compounds, not compound by compound.

How the values were obtained:
[1] = target: T1, Staphylococcus aureus PDF (SaPDF) (Staphylococcus aureus, UniProt P68826); test: PDF IC50 assay (FDH-coupled), S. aureus PDF; assay type: biochemical; details: read-out: IC50, inhibition of S. aureus PDF activity
T1 sequence (P68826 1-183): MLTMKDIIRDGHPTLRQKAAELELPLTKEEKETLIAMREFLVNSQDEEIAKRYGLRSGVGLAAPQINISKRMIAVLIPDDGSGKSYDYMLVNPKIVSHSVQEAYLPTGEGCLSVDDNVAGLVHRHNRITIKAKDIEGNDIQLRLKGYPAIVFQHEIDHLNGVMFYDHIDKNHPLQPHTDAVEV

[2] = target: T2, Streptococcus pneumoniae PDF (Streptococcus pneumoniae serotype 4, UniProt Q9F2F0); test: PDF IC50 assay (FDH-coupled), S. pneumoniae PDF; assay type: biochemical; details: read-out: IC50, inhibition of S. pneumoniae PDF activity
T2 sequence (Q9F2F0 1-203): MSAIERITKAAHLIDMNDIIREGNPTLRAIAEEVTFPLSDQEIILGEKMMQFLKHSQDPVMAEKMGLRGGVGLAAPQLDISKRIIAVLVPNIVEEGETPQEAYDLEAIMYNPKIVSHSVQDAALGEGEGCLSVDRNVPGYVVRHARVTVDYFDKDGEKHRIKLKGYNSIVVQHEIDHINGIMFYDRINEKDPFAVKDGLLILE

Compound	IC50 [1] [nM]	IC50 [2] [nM]
CN(C)C[C@@H]1CCCCN1c1nc(Cl)nc(NNC(=O)[C@H](CC2CCCC2)CN(O)C=O)c1F [Example 267, [(2R)-3-[2-(2-Chloro-6-{(2S)-2-[(dimethylamino)methyl]-1-piperidinyl}-5-fluoro-4-pyrimidinyl)hydrazino]-2-(cyclopentylmethyl)-3-oxopropyl]hydroxyformamide]	≤ 100	≤ 100
CC[C@H](Nc1nc(OC)nc(NNC(=O)[C@H](CC2CCCC2)CN(O)C=O)c1F)C(=O)N(C)C [Example 86, (2S)-2-{[6-[2-((2R)-3-Cyclopentyl-2-{[formyl(hydroxy)amino]methyl}propanoyl)hydrazino]-5-fluoro-2-(methyloxy)-4-pyrimidinyl]amino}-N,N-dimethylbutanamide]	≤ 100	≤ 100
CNc1nc(SC)nc(NNC(=O)[C@H](CC2CCCC2)CN(O)C=O)c1F [Example 43, ((2R)-2-(Cyclopentylmethyl)-3-{2-[5-fluoro-6-(methylamino)-2-(methylthio)-4-pyrimidinyl]hydrazino}-3-oxopropyl)hydroxyformamide]	≤ 100	≤ 100
Cc1nc(NNC(=O)[C@H](CC2CCCC2)CN(O)C=O)c(F)c(N2CC[C@@H](CO)C2)n1 [Example 22, [(2R)-2-(Cyclopentylmethyl)-3-(2-{5-fluoro-6-[(3R)-3-(hydroxymethyl)-1-pyrrolidinyl]-2-methyl-4-pyrimidinyl}hydrazino)-3-oxopropyl]hydroxyformamide]	≤ 100	≤ 100
O=CN(O)C[C@@H](CC1CCCC1)C(=O)NNc1nc(Cl)nc(N2C[C@@H]3C4CCC(O4)[C@@H]3C2)c1F [Example 187, [(2R)-3-(2-{2-Chloro-5-fluoro-6-[(cis)-10-oxa-4-azatricyclo[5.2.1.0^2,6]dec-4-yl]-4-pyrimidinyl}hydrazino)-2-(cyclopentylmethyl)-3-oxopropyl]hydroxyformamide]	≤ 100	≤ 100
CSc1nc(NNC(=O)[C@H](CC2CCCC2)CN(O)C=O)c(F)c(N2CCOC[C@@H]2CO)n1 [Example 141, ((2R)-2-(Cyclopentylmethyl)-3-{2-[5-fluoro-6-[(3S)-3-(hydroxymethyl)-4-morpholinyl]-2-(methylthio)-4-pyrimidinyl]hydrazino}-3-oxopropyl)hydroxyformamide]	≤ 100	≤ 100
C[C@@H]1CN(CCO)CCN1c1nc(Cl)nc(NNC(=O)[C@H](CC2CCCC2)CN(O)C=O)c1F [Example 209, [(2R)-3-(2-{2-Chloro-5-fluoro-6-[(2R)-4-(2-hydroxyethyl)-2-methyl-1-piperazinyl]-4-pyrimidinyl}hydrazino)-2-(cyclopentylmethyl)-3-oxopropyl]hydroxyformamide]	≤ 100	≤ 100
CC1CCN1c1nc(Cl)nc(NNC(=O)[C@H](CC2CCCC2)CN(O)C=O)c1F (mixture of isomers) [Example 266, [(2R)-3-{2-[2-Chloro-5-fluoro-6-(2-methyl-1-azetidinyl)-4-pyrimidinyl]hydrazino}-2-(cyclopentylmethyl)-3-oxopropyl]hydroxyformamide]	≤ 100	≤ 100
CCCNc1nc(CF)nc(NNC(=O)[C@H](CC2CCCC2)CN(O)C=O)c1F [Example 73, ((2R)-2-(Cyclopentylmethyl)-3-{2-[5-fluoro-2-(fluoromethyl)-6-(propylamino)-4-pyrimidinyl]hydrazino}-3-oxopropyl)hydroxyformamide]	≤ 100	≤ 100
CN(C)c1nc(Cl)nc(NNC(=O)[C@H](CC2CCCC2)CN(O)C=O)c1F [Example 88, [(2R)-3-{2-[2-Chloro-6-(dimethylamino)-5-fluoro-4-pyrimidinyl]hydrazino}-2-(cyclopentylmethyl)-3-oxopropyl]hydroxyformamide]	≤ 100	≤ 100
